Laboratory results reported in patent US9701645B2 (priority 2005, dated 2017).
Some entries share one result that the patent states for a list of compounds.

Tested on: mice
Experiment: Seizure-like convulsion incidence in mice
Assay type: in vivo, mouse
Text: One of the most obvious side-effects of potent delta agonists that rapidly penetrate the blood brain barrier is convulsive episodes reminiscent of possible seizure-like brain activity. The mouse is the chosen species for study of these effects since the mouse is the most highly convulsion-sensitive rodent species and mice present with a clear and obvious, whole body tonic-clonic convulsion. One of the earliest phases of delta agonist safety assessments is thus the determination of the convulsion threshold in mice.

| SMILES | Oral doses showing seizure-like convulsant activity in mice [mg/kg] |
| --- | --- |
| CCN(CC)C(=O)c1ccc([C@H](c2cccc(O)c2)N2C[C@@H](C)N(Cc3cccc(F)c3)C[C@@H]2C)cc1 [Formula (i), 4-((alpha-R)-alpha-((2S,5R)-2,5-Dimethyl-4-(3-fluorobenzyl)-1-piperazinyl)-3-hydroxybenzyl)-N,N-diethylbenzamide] | ≥ 15 |
| CCN(CC)C(=O)c1ccc([C@H](c2cccc(O)c2)N2C[C@@H](C)N(Cc3ccccc3F)C[C@@H]2C)cc1 [Formula (ii), 4-((Alpha-R)-Alpha-((2S,5R)-2,5-Dimethyl-4-(2-fluorobenzyl)-1-piperazinyl)-3-hydroxybenzyl)-N,N-diethylbenzamide] | ≥ 15 |
